{
  "source": "patent US20200121801A1",
  "about": "“DRUG DELIVERY CONJUGATES CONTAINING UNNATURAL AMINO ACIDS AND METHODS FOR USING” (priority 2012, published 2020)",
  "key": {"[1]": {"tested_on": "experimental autoimmune uveitis", "assay": "Experimental autoimmune uveitis (EAU) model", "settings": "375 nmol/kg"}, "[2]": {"tested_on": "experimental autoimmune encephalomyelitis", "assay": "Autoimmune encephalomyelitis (EAE) model", "type": "in vivo, rats", "settings": "s.c. every other day from day 8", "description": "METHOD. Autoimmune Encephalomyelitis (EAE) Model. EAE is induced in rats by immunization against 25 μg of guinea pig myelin basic protein (MBP) formulated with CFA containing 1 mg of grounded Mycobacterium tuberculosis H37Ra. Pertussis toxin is given intraperitoneally (1 μg/rat) to enhance the organ-specific autoimmunity. Starting 8 days after induction, rats are divided into […]: (1) untreated control (n=8), (2) test compound (n=7), and (3) test compound plus competitor compound (n=7), such as EC0923 competition. All treatments start on day 8 after EAE induction. The animals in the EAE control group are left untreated. […] The clinical severity of EAE is monitored on a daily basis and graded on a scale of 0 to 5 per animal. The clinical signs of ascending paralysis of EAE rats are divided into a 0-5 scale: 0=No disease, 0.5=distal limp tail, 1=limp tail, 2=mild paraparesis; ataxia-weakened hind limbs, 3=moderate paraparesis; hind limbs paresis, 4=complete hind limb paralysis, 5=complete hind limb paralysis and incontinence (euthanasia). On day 16, the animals are euthanized and brain and spinal cords are fixed in formalin for histology."}, "[3]": {"tested_on": "adjuvant-induced arthritis", "assay": "Adjuvant-induced arthritis (AIA) model", "description": "METHOD. Adjuvant-Induced Arthritis (AIA) Model. Female Lewis rats are fed a folate-deficient diet (Harlan Teklad, Indianapolis, Ind.) for 9-10 days prior to arthritis induction. The adjuvant-induced arthritis (AIA) is induced by intradermal inoculation (at the base of tail) of 0.4-0.5 mg of heat-killed Mycobacteria butyricum (BD Diagnostic Systems, Sparks, Md.) in 100 μL light mineral oil (Sigma). Ten days after arthritis induction, paw edema (degree of arthritis) in rats is assessed using a modified arthritis scoring system: 0=no arthritis; 1=swelling in one type of joint; 2=swelling in two types of joint; 3=swelling in three types of joint; 4=swelling of the entire paw. A total score for each rat is calculated by summarizing the scores for each of the four paws, giving a maximum score of 16 for each rat. On Day 10 post arthritis induction, rats with a total arthritis score of […] were removed from the study and the remaining rats are distributed evenly across the control and treatment groups (n=5 for all groups except that n=2-3 for healthy controls). All treatments are started on Day 10 unless indicated otherwise. Rat paws are also evaluated radiographically to assess and determine bone damage.\nEXAMPLE. […]"}},
  "note": "At least one structure is not confirmed: it was looked up by name or label, or the drawing left a doubt.",
  "data": [
    {"smiles": "N=c1[nH]c(N)nc2ncc(CNc3ccc(C(=O)N[C@@H](CCC(=O)NNC(=O)OCCSSC[C@@H](NC(=O)[C@H](CCC(=O)NC[C@H](O)[C@@H](O)[C@H](O)[C@H](O)CO)NC(=O)[C@@H](CCC(=O)O)NC(=O)[C@H](CCC(=O)NC[C@H](O)[C@@H](O)[C@H](O)[C@H](O)CO)NC(=O)[C@@H](CCC(=O)O)NC(=O)[C@H](CCC(=O)NC[C@H](O)[C@@H](O)[C@H](O)[C@H](O)CO)NC(=O)CC[C@@H](NC(=O)c4ccc(NCc5cnc6nc(N)[nH]c(=O)c6n5)cc4)C(=O)O)C(=O)O)C(=O)O)cc3)nc12", "note": "[EC1496]", "values": [
      {"measurement": "efficacy against autoimmune uveitis", "setting": "[1]", "result": "potent and efficacious"},
      {"measurement": "efficacy against EAE (clinical score)", "setting": "[2]", "result": "potent and efficacious"},
      {"measurement": "bone damage by radiographic analysis", "setting": "[3]; visual scoring", "result": "do not exhibit the bone damage seen in the untreated control animals"},
      {"measurement": "paw edema / development of arthritis", "setting": "[3]; vs untreated control", "result": "efficacious in preventing the development of arthritis"}
    ]}
  ]
}
